Some of the results follow. Shown are side measurements of this screen, not its main read-out; they come without a call. The list favours compounds with an active or inconclusive main result. The note in brackets gives the kind of curve behind each potency; many fits are weak.
test: Cell signaling CRE-BLA (Fsk stim); conditions: CHO CRE-bla reporter (cAMP response element driving beta-lactamase), forskolin EC10, beta-lactamase ratio; measured here: 460 nm blue channel
How it was run: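 qHTS titration format; CRE-bla CHO reporter; stimulus EC10 NKH 477, a water-soluble forskolin. Read: CCF4 460/530 nm ratio. Potency expressed as AC50 for activators or inhibitors.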

Structure (SMILES)	AC50
CCOc1ccc(CCNC(=O)CCN2C(=O)COc3ccccc32)cc1OCC	12.6 µM [rising, single point]
c1cc(-c2nc3cc(Oc4ccc5oc(-c6ccncc6)nc5c4)ccc3o2)ccn1	2.51 µM [rising, partial curve]
O=C(CSc1nnc(-c2cccnc2)n1-c1ccccc1)Nc1ccccn1	10 µM [rising, single point]
COC(=O)c1cc2ccccc2c(=O)s1	25.1 µM [rising, single point]
COc1ccc(NC(=O)CN2CCN(CC(=O)Nc3ccccc3Cl)CC2)cc1Cl	0.2 µM [rising, single point]
Cc1cc(C(=O)CN2C(=O)NC(c3ccccc3)(c3ccccc3)C2=O)c(C)n1Cc1ccco1	10 µM [falling, single point]
COc1cccc(NC(=O)Cc2nnc(SCC(=O)c3ccccc3)n2C)c1	3.16 µM [falling, full curve]
Cc1occc1C(=O)NCc1cccs1	3.98 µM [rising, single point]
COCCCNc1oc(-c2ccccc2OC)nc1C#N	0.794 µM [rising, single point]
CCNc1ncc2nc(-c3cc(F)cc(F)c3)c(=O)n(C)c2n1	2.51 µM [rising, full curve]
CCN(CC)C(=O)CSc1ncnc2c(-c3cccs3)nsc12	25.1 µM [rising, single point]
CNc1sc(C(=O)c2cccs2)c(N)c1-c1nc2ccccc2s1	12.6 µM [falling, partial curve]
O=C(c1ccco1)N1CCC[C@@]2(CCN(C(c3ccccc3)c3ccccc3)C2)C1	5.01 µM [falling, single point]
Cc1ccsc1-c1nc(CSCC(=O)NCCN2CCCC2)c(C)o1	0.0631 µM [falling, partial curve, poor fit]
COCCn1c(SCc2ccc(C(=O)OC)o2)nc2cc(Cl)ccc2c1=O	5.01 µM [rising, partial curve]
COC(=O)c1[nH]c2ccc(C)cc2c1NC(=O)C1=COCCO1	25.1 µM [rising, single point]
CCOC(=O)c1cc(C#N)c(SCC(=O)c2cc(C#N)c(SC)nc2C)nc1C	2 µM [rising, single point]
CCN1CCN(C(c2cccs2)C(C)NC(=O)c2ccco2)CC1 (centres undefined)	1 µM [rising, partial curve]
C/C(N)=C(/C#N)C(=O)CSc1n[nH]c(-c2ccccc2Br)n1	0.631 µM [falling, full curve, poor fit]
Cc1ccc(-c2c(C#N)c(N)nc3c2CCCCCC3)o1	2.51 µM [rising, full curve, poor fit]
CCn1c(SCC(=O)Nc2ccc(C(C)=O)cc2)nc2ccccc21	10 µM [rising, single point]
CCOC(=O)C1CCN(Cc2cn[nH]c2-c2ccc(C)cc2)CC1	5.01 µM [falling, single point]

Structure (SMILES)	AC50
COc1ccc(C2NC(=O)NC(C)=C2C(=O)Nc2cccc(C)c2C)cc1 (centres undefined)	7.94 µM [rising, partial curve]
Nc1ccccc1NC(=O)c1ccccc1N	0.00316 µM [falling, full curve, poor fit]
Cc1c2c(nc3ccccc13)-c1cccc(=O)n1C2	2.51 µM [rising, full curve]
CCCCOc1ccccc1NC(=O)CC1Nc2ccccc2NC1=O (centres undefined)	2.51 µM [rising, partial curve]
CN(C)c1ncc2ncc(=O)n(C[C@H]3CCCO3)c2n1	12.6 µM [rising, partial curve]
COc1nc(-c2ccc(C)cc2)ccc1-c1noc(-c2cccnc2)n1	0.794 µM [falling, single point]
Cc1nc(=O)c(-c2ccccc2)c(C)n1-c1ccc(C(=O)O)cc1	0.631 µM [falling, full curve]
Cc1cnc(CNc2ncnc3ccc(-c4c(C)noc4C)cc23)cn1	10 µM [rising, partial curve]
O=C(NCc1ccco1)C1CCCN(S(=O)(=O)c2cccc3nonc23)C1 (centres undefined)	10 µM [falling, single point]
O=c1oc(-c2cccs2)nc2c1cnn2-c1ccccc1	12.6 µM [rising, single point]
COc1ccc(Cl)cc1NC(=O)COc1cccc(-n2cnnn2)c1	12.6 µM [rising, partial curve]
COCCNc1ncnc2ccc(-c3ccccc3OC)cc12	12.6 µM [rising, single point]
CCCCCNC(=O)CCCCn1c(=O)[nH]c2cc(OCC)c(OCC)cc2c1=O	5.01 µM [falling, partial curve]
COc1cccc(Nc2ncc3nc(CCc4ccccc4)c(=O)n(C)c3n2)c1	15.8 µM [rising, partial curve]
O=C(Nc1nc2ccc(Cl)cc2s1)c1ccc(Br)o1	1 µM [falling, single point]
CCOC(=O)c1c(NC(=O)CSc2n[nH]c(-c3ccco3)n2)sc(C)c1C	0.0501 µM [rising, full curve]
CCCn1c2c(c(O)c(C(=O)Nc3ccc(OC)cc3)c1=O)CCCC2	3.16 µM [rising, partial curve]
COc1ccc(Cn2nnc3c(=O)[nH]c(C4CCCN(C(=O)c5ccccc5)C4)nc32)cc1 (centres undefined)	10 µM [rising, partial curve]
CCc1c(C)nc2ncnn2c1N1CCCC(C(=O)NCc2ccco2)C1 (centres undefined)	10 µM [rising, single point]
COc1ccccc1OCC(=O)Nc1ccc(S(=O)(=O)N2CCCCCC2)cc1	1 µM [falling, single point]
C[C@@]12C(=O)OC(=O)[C@@]1(C)[C@H]1CC[C@@H]2O1	0.501 µM [rising, full curve, poor fit]
CCc1ccc(N(C(C)=O)C2C=CS(=O)(=O)C2)cc1 (centres undefined)	2 µM [falling, full curve, poor fit]

Gathered by group, the entries above with bromine (2)
Structure (SMILES)	AC50
C/C(N)=C(/C#N)C(=O)CSc1n[nH]c(-c2ccccc2Br)n1	0.631 µM [falling, full curve, poor fit]
O=C(Nc1nc2ccc(Cl)cc2s1)c1ccc(Br)o1	1 µM [falling, single point]

— PubChem BioAssay AID662 (National Center for Advancing Translational Sciences (NCATS), 2007)
